# About 7,700 (2.3%) of roughly 330,000 compounds were called active. The shares of active, inactive and inconclusive entries below differ from those in the screen. Calls come from the whole dose curve; as a rule, active = well fitted inhibition curve with a large enough effect; inconclusive = small, poorly fitted or top-dose-only effect, or effect the other way; inactive = flat fitted curve, though single readings scatter. Where the call is inconclusive, the potency comes from a doubtful curve fit.
# Test: qHTS screen for small molecules that inhibit ELG1-dependent DNA repair in human embryonic kidney (HEK293T) cells expressing luciferase-tagged ELG1; note: nearly all actives have a fitted effect of over 55% in size
# Conditions: HEK293T ELG1-luciferase reporter, luminescence, 16 h, DNA damage induced by 5-fluorouridine; activity change, negative = inhibition: at 46.1 µM (top of the series)
# How it was run: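 HEK293T cells expressing luciferase-tagged ELG1 (2,000/well) received 5-Fluorouridine plus compound or DMSO for 16 hr at 37 °C. Luciferase was read by ONE-Glo luminescence after 30 min at room temperature.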
# % is set by controls: 0 for no effect and ±100 for the full control effect; potency is the fitted concentration of half-maximal effect.
Compound,"activity change, negative = inhibition",Potency
CCCC(C(=O)Nc1cc(S(=O)(=O)N2CCOCC2)ccc1OC)c1ccccc1 (stereo not drawn),inactive: 8.59%,–
COc1ccccc1C(=O)NNC(=O)c1nn(Cc2ccccc2)c(=O)c2ccccc12,–,"inconclusive: 20.6 µM [inhibitor, single point]"
O=c1ccn(-c2cccc(C(F)(F)F)c2)nc1-c1ccn(-c2cccc(Cl)c2)n1,–,"inconclusive: 23.1 µM [inhibitor, partial curve, poor fit]"
COc1ccc(NC(=O)CN(C)CC(=O)Nc2sc3c(c2C(N)=O)CCC3)cc1,–,active: 20.6 µM
O=C1CN(C(=O)CSc2nnnn2-c2ccc(Cl)cc2)c2ccccc2N1,–,"inconclusive: 18.4 µM [inhibitor, partial curve, poor fit]"
Cc1cc(NC(=O)C(=O)NCCN2CCN(S(C)(=O)=O)CC2)ccc1Br,–,"inconclusive: 29.1 µM [activator, single point]"
O=C(Nc1ccc(F)cc1)c1cccc(N2C(=O)C3C4C=CC(C5CC45)C3C2=O)c1 (stereo not drawn),–,active: 16.4 µM
CCC(CO)Oc1cc(NCc2ccccc2C(F)(F)F)c2ncn(C(C)C)c2c1 (stereo not drawn),–,active: 23.1 µM
COC(=O)c1cc2ccccn2c2c(C(=O)OC)c(C(=O)OC)cc1-2,–,"inconclusive: 6.51 µM [inhibitor, full curve]"
NC(=O)c1cc([N+](=O)[O-])ccc1NCc1ccc(O)cc1,–,"inconclusive: 22.4 µM [activator, single point]"
CSc1nc(-c2ccccc2)nn1S(=O)(=O)c1ccc(Cl)cc1,–,"inconclusive: 18.4 µM [activator, partial curve, poor fit]"
COc1ccccc1N(CC(=O)N1CCCC1)S(=O)(=O)c1cc([N+](=O)[O-])ccc1Cl,–,"inconclusive: 18.3 µM [inhibitor, single point]"
O=c1[nH]c(=O)n(-c2ccccc2)c2c1C(C(F)(F)F)(C(F)(F)F)N=C(CCC1CCCCC1)N2,–,"inconclusive: 25.9 µM [inhibitor, partial curve, poor fit]"
Clc1ccc2oc3c(Cl)ncnc3c2c1,–,"inconclusive: 29.1 µM [inhibitor, single point]"
COc1ccc2nc(SCC(=O)NCC(F)(F)F)[nH]c2c1,inactive: 17.2%,–
COc1cc(NC(=O)C2CCN(S(=O)(=O)c3cccc4nonc34)CC2)cc(OC)c1,–,"inconclusive: 32.6 µM [inhibitor, single point]"
Cc1ccc(Sc2c(CO)c(-c3ccccc3)nn2C)cc1,–,"inconclusive: 29.1 µM [inhibitor, single point]"
COc1ccc(CSCC(=O)Nc2ccccc2SC)cc1,inactive: -5.48%,–

# Some of these compounds in order of count of non-hydrogen atoms, smallest number first.
Compound,"activity change, negative = inhibition",Potency
NC(=O)c1cc([N+](=O)[O-])ccc1NCc1ccc(O)cc1,–,"inconclusive: 22.4 µM [activator, single point]"
COc1ccc(NC(=O)CN(C)CC(=O)Nc2sc3c(c2C(N)=O)CCC3)cc1,–,active: 20.6 µM
CCCC(C(=O)Nc1cc(S(=O)(=O)N2CCOCC2)ccc1OC)c1ccccc1 (stereo not drawn),inactive: 8.59%,–

# — PubChem BioAssay AID504467 (National Center for Advancing Translational Sciences (NCATS), 2011)
